Source: article doi:10.1101/2021.08.05.455219
These are yes or no findings as the source states them, for the method shown. In cells and extracts the contact can be indirect. Some entries that bind do so weakly or less than the wild type. Tags and fused reporters may be left off the sequences shown.

Protein sequences, listed by entry. Tags and fused reporters are not part of them.
UniProt Q9ERZ3: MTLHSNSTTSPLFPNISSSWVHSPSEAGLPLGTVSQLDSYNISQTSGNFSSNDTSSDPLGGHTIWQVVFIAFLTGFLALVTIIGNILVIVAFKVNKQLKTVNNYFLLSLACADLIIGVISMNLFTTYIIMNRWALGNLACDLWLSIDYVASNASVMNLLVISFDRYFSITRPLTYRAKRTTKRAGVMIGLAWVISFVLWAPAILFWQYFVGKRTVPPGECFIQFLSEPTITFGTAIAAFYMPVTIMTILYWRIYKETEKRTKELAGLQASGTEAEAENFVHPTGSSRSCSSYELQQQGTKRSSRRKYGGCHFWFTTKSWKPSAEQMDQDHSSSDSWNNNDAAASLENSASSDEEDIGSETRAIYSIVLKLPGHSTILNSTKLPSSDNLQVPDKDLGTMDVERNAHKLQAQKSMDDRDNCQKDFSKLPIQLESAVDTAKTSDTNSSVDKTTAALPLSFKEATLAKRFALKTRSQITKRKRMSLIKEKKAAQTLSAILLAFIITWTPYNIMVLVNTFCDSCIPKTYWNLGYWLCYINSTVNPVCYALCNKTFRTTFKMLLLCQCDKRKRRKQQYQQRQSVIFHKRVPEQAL

T1: flag-Brsk2 (brain-specific serine/threonine-protein kinase 2), from pcDNA-flag-Brsk2 (human) (UniProt Q8IWQ3)
T1 sequence: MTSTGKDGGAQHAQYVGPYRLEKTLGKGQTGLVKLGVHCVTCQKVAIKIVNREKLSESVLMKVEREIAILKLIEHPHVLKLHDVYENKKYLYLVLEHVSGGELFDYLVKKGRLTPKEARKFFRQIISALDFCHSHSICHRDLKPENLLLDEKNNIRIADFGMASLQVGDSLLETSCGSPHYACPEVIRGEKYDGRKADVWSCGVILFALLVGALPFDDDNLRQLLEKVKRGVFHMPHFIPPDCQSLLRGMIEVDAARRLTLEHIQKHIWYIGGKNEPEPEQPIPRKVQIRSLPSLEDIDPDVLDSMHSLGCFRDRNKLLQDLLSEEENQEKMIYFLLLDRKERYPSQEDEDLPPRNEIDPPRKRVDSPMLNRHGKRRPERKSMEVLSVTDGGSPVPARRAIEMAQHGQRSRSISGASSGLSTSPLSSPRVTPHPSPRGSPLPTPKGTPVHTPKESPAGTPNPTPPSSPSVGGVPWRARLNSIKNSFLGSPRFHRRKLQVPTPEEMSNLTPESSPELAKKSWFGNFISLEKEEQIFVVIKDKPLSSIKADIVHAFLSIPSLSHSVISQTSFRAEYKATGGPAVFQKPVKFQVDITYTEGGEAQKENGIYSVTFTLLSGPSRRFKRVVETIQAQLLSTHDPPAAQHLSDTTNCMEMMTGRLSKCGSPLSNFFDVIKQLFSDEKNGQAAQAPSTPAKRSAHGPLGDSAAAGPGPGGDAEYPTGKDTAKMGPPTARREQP

T2: Flag-Brsk2 expressed from the adenovirus Ad-Brsk2 in MIN6 cells (human) (UniProt Q8IWQ3)
T2 sequence: T1 sequence

B1: phospholipase A2 activating protein (Plaa) of MIN6 cells (protein, UniProt P27612 1-794)
chain: MASGASRYRLSCSLPGHELDVRGLVCCLYPPGAFVSVSRDRTTRLWAPDSPNRGFTEMHCMSGHSNFVSCVCIIPSSDIYPHGLIATGGNDHNICIFSLDSPMPLYILKGHKDTVCSLSSGKFGTLLSGSWDTTAKVWLNDKCMMTLQGHTAAVWAVKILPEQGLMLTGSADKTIKLWKAGRCERTFLGHEDCVRGLAILSETEFLSCANDASIRRWQITGECLEVYFGHTNYIYSISVFPNSKDFVTTAEDRSLRIWKHGECAQTIRLPAQSIWCCCVLENGDIVVGASDGIIRVFTESEERTASAEEIKAFERELSQATIDSKTGDLGDINAEQLPGREHLSEPGTREGQTRLIRDGERVEAYQWSVSDGRWIKIGDVVGSSGANQQTSGKVLYEGKEFDYVFSIDVNEGGPSYKLPYNVSDDPWLVAYNFLQKNDLNPMFLDQVAKFIIDNTKGQTLGLGNTSFSDPFTGGGRYVPGTSGPSNTVQTADPFTGAGRYMPGSAGMDTTMTGVDPFTGNSAYRSAASKTVNIYFPKKEALTFDQANPTQILGKLKELNGTAPEEKKLTEDDLVLLEKILSLICNNSSEKPTAQQLQILWKAINWPEDIVFPALDILRLSIKHPNVNENFCNEKGDQFSSHLINLLNPKGKPANQLLALRTFCNCFVSQAGQKLMMSQRESLMSHAIELKSGSNKNIHIALATLTLNYSVCFHKDHNIEGKAQCLSVISTILEVVQDLEATFRLLVALGTLISDDSNAIQLAKSLGVDSQIKKYVSVSEPAKVSECCRLVLHLL

Legend:
[1] = target: T1, flag-Brsk2 (brain-specific serine/threonine-protein kinase 2), from pcDNA-flag-Brsk2 (human); assay: co-IP
[2] = target: T2, Flag-Brsk2 expressed from the adenovirus Ad-Brsk2 in MIN6 cells (human); assay: co-IP

Row | Molecule | binding [1] | binding [2]
1 | mCherry-Chrm3 (cholinergic receptor M3), from pmCherry-Chrm3 (from UniProt Q9ERZ3 1-589) | binds | –
2 | B1 | – | binds
